The results in this text go back to article PMC9674678.

B1: topoisomerase Top1 (protein, UniProt P04786 1-769)
chain: MTIADASKVNHELSSDDDDDVPLSQTLKKRKVASMNSASLQDEAEPYDSDEAISKISKKKTKKIKTEPVQSSSLPSPPAKKSATSKPKKIKKEDGDVKVKTTKKEEQENEKKKREEEEEEDKKAKEEEEEYKWWEKENEDDTIKWVTLKHNGVIFPPPYQPLPSHIKLYYDGKPVDLPPQAEEVAGFFAALLESDHAKNPVFQKNFFNDFLQVLKESGGPLNGIEIKEFSRCDFTKMFDYFQLQKEQKKQLTSQEKKQIRLEREKFEEDYKFCELDGRREQVGNFKVEPPDLFRGRGAHPKTGKLKRRVNPEDIVLNLSKDAPVPPAPEGHKWGEIRHDNTVQWLAMWRENIFNSFKYVRLAANSSLKGQSDYKKFEKARQLKSYIDAIRRDYTRNLKSKVMLERQKAVAIYLIDVFALRAGGEKSEDEADTVGCCSLRYEHVTLKPPNTVIFDFLGKDSIRFYQEVEVDKQVFKNLTIFKRPPKQPGHQLFDRLDPSILNKYLQNYMPGLTAKVFRTYNASKTMQDQLDLIPNKGSVAEKILKYNAANRTVAILCNHQRTVTKGHAQTVEKANNRIQELEWQKIRCKRAILQLDKDLLKKEPKYFEEIDDLTKEDEATIHKRIIDREIEKYQRKFVRENDKRKFEKEELLPESQLKEWLEKVDEKKQEFEKELKTGEVELKSSWNSVEKIKAQVEKLEQRIQTSSIQLKDKEENSQVSLGTSKINYIDPRLSVVFCKKYDVPIEKIFTKTLREKFKWAIESVDENWRF
B2: DNA repair protein Rad5 (protein, UniProt P32849 1-1169)
chain: MSHIEQEERKRFFNDDLDTSETSLNFKSENKESFLFANSHNDDDDDVVVSVSDTTEGEGDRSIVPVRREIEEEGQNQFITELLRIIPEMPKDLVMELNEKFGSQEEGLSLALSHYFDHNSGTSISKIPSSPNQLNTLSDTSNSTLSPSSFHPKRRRIYGFRNQTRLEDKVTWKRFIGALQVTGMATRPTVRPLKYGSQMKLKRSSEEISATKVYDSRGRKKASMASLVRIFDIQYDREIGRVSEDIAQILYPLLSSHEISFEVTLIFCDNKRLSIGDSFILQLDCFLTSLIFEERNDGESLMKRRRTEGGNKREKDNGNFGRTLTETDEELESRSKRLALLKLFDKLRLKPILDEQKALEKHKIELNSDPEIIDLDNDEICSNQVTEVHNNLRDTQHEEETMNLNQLKTFYKAAQSSESLKSLPETEPSRDVFKLELRNYQKQGLTWMLRREQEFAKAASDGEASETGANMINPLWKQFKWPNDMSWAAQNLQQDHVNVEDGIFFYANLHSGEFSLAKPILKTMIKGGILSDEMGLGKTVAAYSLVLSCPHDSDVVDKKLFDIENTAVSDNLPSTWQDNKKPYASKTTLIVVPMSLLTQWSNEFTKANNSPDMYHEVYYGGNVSSLKTLLTKTKTPPTVVLTTYGIVQNEWTKHSKGRMTDEDVNISSGLFSVNFYRIIIDEGHNIRNRTTVTSKAVMALQGKCKWVLTGTPIINRLDDLYSLVKFLELDPWRQINYWKTFVSTPFESKNYKQAFDVVNAILEPVLLRRTKQMKDKDGKPLVELPPKEVVIKRLPFSKSQDLLYKFLLDKAEVSVKSGIARGDLLKKYSTILVHILRLRQVCCHPGLIGSQDENDEDLSKNNKLVTEQTVELDSLMRVVSERFDNSFSKEELDAMIQRLKVKYPDNKSFQSLECSICTTEPMDLDKALFTECGHSFCEKCLFEYIEFQNSKNLGLKCPNCRNQIDACRLLALVQTNSNSKNLEFKPYSPASKSSKITALLKELQLLQDSSAGEQVVIFSQFSTYLDILEKELTHTFSKDVAKIYKFDGRLSLKERTSVLADFAVKDYSRQKILLLSLKAGGVGLNLTCASHAYMMDPWWSPSMEDQAIDRLHRIGQTNSVKVMRFIIQDSIEEKMLRIQEKKRTIGEAMDTDEDERRKRRIEEIQMLFE
B3: helicase Rrm3 (protein, UniProt P38766 1-723)
chain: MFRSHASGNKKQWSKRSSNGSTPAASASGSHAYRQQTLSSFFMGCGKKSAAASKNSTTIIDLESGDEGNRNITAPPRPRLIRNNSSSLFSQSQGSFGDDDPDAEFKKLVDVPRLNSYKKSSRSLSMTSSLHKTASASTTQKTYHFDEDETLREVTSVKSNSRQLSFTSTINIEDSSMKLSTDSERPAKRSKPSMEFQGLKLTVPKKIKPLLRKTVSNMDSMNHRSASSPVVLTMEQERVVNLIVKKRTNVFYTGSAGTGKSVILQTIIRQLSSLYGKESIAITASTGLAAVTIGGSTLHKWSGIGIGNKTIDQLVKKIQSQKDLLAAWRYTKVLIIDEISMVDGNLLDKLEQIARRIRKNDDPFGGIQLVLTGDFFQLPPVAKKDEHNVVKFCFESEMWKRCIQKTILLTKVFRQQDNKLIDILNAIRYGELTVDIAKTIRNLNRDIDYADGIAPTELYATRREVELSNVKKLQSLPGDLYEFKAVDNAPERYQAILDSSLMVEKVVALKEDAQVMMLKNKPDVELVNGSLGKVLFFVTESLVVKMKEIYKIVDDEVVMDMRLVSRVIGNPLLKESKEFRQDLNARPLARLERLKILINYAVKISPHKEKFPYVRWTVGKNKYIHELMVPERFPIDIPRENVGLERTQIPLMLCWALSIHKAQGQTIQRLKVDLRRIFEAGQVYVALSRAVTMDTLQVLNFDPGKIRTNERVKDFYKRLETLK

No constants are given. Whether binding was seen depends on the method and setting. In cells and extracts the contact can be indirect. Here binding means that the protein was enriched with, or labelled near, the bait; the list need not be complete. Where a sequence is shown, tags or fusion partners need not be part of it.

The target of the assay is T1, GFP-tagged GINS subunit Psf2 (S. cerevisiae) (UniProt P40359).
T1 sequence: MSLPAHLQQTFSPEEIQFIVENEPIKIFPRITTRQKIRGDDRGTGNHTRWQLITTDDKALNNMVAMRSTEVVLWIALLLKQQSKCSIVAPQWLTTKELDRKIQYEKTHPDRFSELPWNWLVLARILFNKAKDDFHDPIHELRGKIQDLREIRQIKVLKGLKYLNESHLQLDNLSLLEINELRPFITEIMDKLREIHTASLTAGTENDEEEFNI
Put plainly: affinity purification with mass spectrometry; GFP-Trap agarose beads on DNase-treated yeast extracts (100 mM potassium acetate, 0.1% NP-40, 10% glycerol, 2 h at 4 °C); bait GFP-tagged Psf2 against untagged control; cells in S-phase, HU-arrested in S-phase, or after 3 h of G1 replication (CDK/DDK bypass); label-free quantitative MS.
Take B1: the binding result is “binds”.
As for B2, the entry is “binds”; as for B3, “binds”.
